System: eGFP protein expression
Assay: Western blot analysis of eGFP protein expression in U2OS.eGFP.PEST cells
Type: cell-based
Details: 24 h incubation

SMILES	effect on eGFP expression levels
COc1ccc(-c2ccc3c(c2)[C@H]2[C@H](CCN2Cc2ccncc2)[C@@H](CO)N3)cc1 [BRD5779, ((3aR,4S,9bR)-8-(4-Methoxyphenyl)-1-(pyridin-4-ylmethyl)-2,3,3a,4,5,9b-hexahydro-1H-pyrrolo[3,2-c]quinolin-4-yl) methanol]	No change
OC[C@H]1Nc2ccc(-c3cccc(F)c3)cc2[C@H]2[C@@H]1CCN2Cc1ccncc1 [BRD7087, ((3aR,4S,9bR)-8-(3-Fluorophenyl)-1-(pyridin-4-ylmethyl)-2,3,3a,4,5,9b-hexahydro-1H-pyrrolo[3,2-c]quinolin-4-yl) methanol]	No change
